Results: patent US10053448B2, “Substituted tetrazolinones for controlling plant diseases” (SUMITOMO CHEMICAL COMPANY, LIMITED, priority 2015, dated 2018)
Where two headings read alike, the source gives them in different places. Some of these results come from one statement about several compounds together. At least one structure is not confirmed: it was looked up by name or label, or the drawing left a doubt.

Experiments:
[1] = tested on: barley net blotch fungus (Pyrenophora teres); experiment: Test Example 1: barley net blotch, foliar spray, preventive; type: in vivo; details: barley (MIKAMO GOLDEN), 500 ppm foliar spray, inoculated after 2 days
[2] = tested on: rice blast fungus (Magnaporthe grisea); type: in vivo; details: rice (NIHONBARE), 500 ppm foliar spray, contact with infected seedlings 6 days
[3] = tested on: cucumber powdery mildew fungus (Sphaerotheca fuliginea, a QoI-resistant strain, cytochrome b position 143 glycine to alanine); experiment: Test Example 5: cucumber powdery mildew (QoI-resistant), foliar spray; type: in vivo; details: cucumber (SAGAMI HANJIRO), 500 ppm foliar spray, QoI-resistant strain (G143A), 8 days
[4] = tested on: wheat rust fungus (Puccinia recondita); experiment: Test Example 6: wheat rust, foliar spray; type: in vivo; details: wheat (SHIROGANE), 200 ppm foliar spray, inoculated after 5 days
[5] = tested on: barley net blotch fungus (Rhynchosporium secalis); experiment: Test Example 8: barley, Rhynchosporium secalis, foliar spray; type: in vivo; details: barley (MIKAMO GOLDEN), 200 ppm foliar spray, inoculated after 2 days
[6] = tested on: cucumber anthrax fungus (Colletotrichum lagenarium); type: in vivo; details: cucumber (SAGAMI HANJIRO), 200 ppm foliar spray, inoculated after one day
[7] = tested on: tomato leaf mold fungus (Cladosporium fulvum, a QoI-resistant strain, cytochrome b position 129 phenylalanine to leucine); experiment: Test Example 14: tomato leaf mold fungus growth in titer plate; type: cell-based; details: 1 μL of 150 ppm DMSO dilution plus 150 μL PDB medium, 18° C., 6 days, absorbance 550 nm, QoI-resistant strain (F129L)
[8] = tested on: barley net blotch fungus (Pyrenophora teres); experiment: Test Example 15: barley net blotch, foliar spray; type: in vivo; details: barley (MIKAMO GOLDEN), 200 ppm foliar spray, inoculated after 2 days
[9] = tested on: rice blast fungus (Magnaporthe grisea); type: in vivo; details: rice (NIHONBARE), 200 ppm foliar spray, contact with infected seedlings 6 days
[10] = tested on: cucumber powdery mildew fungus (Sphaerotheca fuliginea, a QoI-resistant strain, cytochrome b position 143 glycine to alanine); experiment: Test Example 19: cucumber powdery mildew (QoI-resistant), foliar spray; type: in vivo; details: cucumber (SAGAMI HANJIRO), 200 ppm foliar spray, QoI-resistant strain (G143A), 8 days

| Structure (SMILES) | area of lesion spots on the treated plant, of that on an untreated plant [1] | area of lesion spots on the treated plant, of that on an untreated plant [2] | area of lesion spots on the treated plant, of that on an untreated plant [3] | area of lesion spots on the treated plant, of that on an untreated plant [4] | area of lesion spots on the treated plant, of that on an untreated plant [5] | area of lesion spots on the treated plant, of that on an untreated plant [6] | inhibition rate [7] | area of lesion spots on the treated plant, of that on an untreated plant [8] | area of lesion spots on the treated plant, of that on an untreated plant [9] | area of lesion spots on the treated plant, of that on an untreated plant [10] |
| --- | --- | --- | --- | --- | --- | --- | --- | --- | --- | --- |
| COc1cccc(-n2nnn(C)c2=O)c1COc1cc(C)c(-c2ccn(C3CC3)n2)cc1C [compound 1] | ≤ 30% | ≤ 30% | ≤ 30% | ≤ 30% | ≤ 30% | ≤ 30% | ≥ 80% | ≤ 30% | ≤ 30% | ≤ 30% |
| Cc1cc(-c2ccn(C3CC3)n2)c(C)cc1OCc1c(C)cccc1-n1nnn(C)c1=O [compound 2] | ≤ 30% | ≤ 30% | ≤ 30% | ≤ 30% | ≤ 30% | ≤ 30% | ≥ 80% | ≤ 30% | ≤ 30% | ≤ 30% |
| Cc1cc(-c2cc(C)n(C3CC3)n2)c(C)cc1OCc1c(C)cccc1-n1nnn(C)c1=O [compound 3] | ≤ 30% | ≤ 30% | ≤ 30% | ≤ 30% | ≤ 30% | ≤ 30% | ≥ 80% | ≤ 30% | ≤ 30% | ≤ 30% |
| Cc1cc(-c2ccn(C3CC3)n2)c(C)cc1OCc1ccccc1-n1nnn(C)c1=O [compound 4] |  |  |  | ≤ 30% | ≤ 30% | ≤ 30% | ≥ 80% | ≤ 30% | ≤ 30% | ≤ 30% |
| Cc1cc(-c2ccn(C3CC3)n2)c(C)cc1OCc1c(Cl)cccc1-n1nnn(C)c1=O [compound 5] |  |  |  | ≤ 30% | ≤ 30% | ≤ 30% | ≥ 80% | ≤ 30% | ≤ 30% | ≤ 30% |
| Cc1cc(-c2ccn(C3CC3)n2)c(C)cc1OCc1c(C2CC2)cccc1-n1nnn(C)c1=O [compound 6] |  |  |  | ≤ 30% | ≤ 30% | ≤ 30% | ≥ 80% | ≤ 30% | ≤ 30% | ≤ 30% |
